Test results taken from US20190225690A1.
Results are given in words; binding and its absence hold for the method and conditions named. Some results given as binding are weak or reduced against the parent protein; the word gives no strength.

Sequences of proteins named here, by UniProt entry; tags and fusion partners are left off. A change or cut given only in a name is not applied to a line headed by its entry. Residues count along the entry.
UniProt P16410: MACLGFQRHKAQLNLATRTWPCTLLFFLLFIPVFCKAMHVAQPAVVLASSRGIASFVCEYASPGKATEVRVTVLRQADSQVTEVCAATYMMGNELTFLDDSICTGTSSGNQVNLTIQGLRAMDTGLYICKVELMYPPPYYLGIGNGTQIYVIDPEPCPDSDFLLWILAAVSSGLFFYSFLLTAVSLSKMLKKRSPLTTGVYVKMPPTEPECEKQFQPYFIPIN
human CTLA4 on hCTLA4-293T cells: residues 36-223 of P16410
human CTLA4 (construct not stated): residues 36-161 of P16410

How the values were obtained:
[1] = molecular target: T1, cynomolgus macaque CTLA4 (cynomolgus macaque) (UniProt G7PL88); assay: protein based ELISA
T1 sequence: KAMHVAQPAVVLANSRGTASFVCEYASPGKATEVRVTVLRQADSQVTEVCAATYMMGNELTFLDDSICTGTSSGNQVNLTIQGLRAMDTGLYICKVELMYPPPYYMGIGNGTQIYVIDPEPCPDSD

[2] = molecular target: human CTLA4 (construct not stated) (human) (UniProt P16410); assay: protein based ELISA
human CTLA4-hFc (human) = assay: ELISA on coated CTLA4-hFc
[3] = molecular target: human CTLA4 on hCTLA4-293T cells (human) (UniProt P16410); assay: FACS on hCTLA4-293T cells
[4] = molecular target: human CTLA4 (construct not stated) (human) (UniProt P16410); assay: SPR (Biacore 3000), antibody captured
[5] = molecular target: human CTLA4 (construct not stated) (human) (UniProt P16410); assay: SPR (Biacore 3000), antibody captured by anti-mouse Fc mAb, CTLA4 as analyte
[6] = molecular target: human CTLA4 (construct not stated) (human) (UniProt P16410); assay: SPR (Biacore 3000)

Measured: binding

B1: 10B10 murine (antibody, V domains shown)
VH: DVQLQESGPGLVTPSQSLSLTCSVTGYSITSGYSWNWIRQFPGNKLEWMGYIRFDGNNNYNPFLKNRISITRDTSENQFFLKLNSVTTEDTATYYCARNYGTWGAMDFWGQGTSVTVSS
VL: DIVLTQSPSSLSASLGGKVTITCKTSQDINKYMAWYQHKPGKGPRLLIYYTSILQPGIPSRFSGSGSGTDYSFSINNLEPEDIATYYCQQYDNLNTFGGGTMLEIK
binds: [1] | [2] | human CTLA4-hFc (human) | [3] | [4] | [5]

B2: 6F3 murine (antibody, V domains shown)
VH: QVKLQESGAELVRPGASVTLSCKASGYTFTDYEMHWMKQTPVHGLEWIGVIDPETGGITYNQKFKGKATLTADKSSSTAYMEFLSLTSEDSAVYYCTRRGARATVYNYVMDYWGQGTSVTVSS
VL: DIVMTQTTASLSASVGETVTITCRASENIHNYLAWYQQKQGRSPQLLVYNAKTLGDGVPSRFSGSGSGTQYSLKINSLQPEDFGSYYCQHFWSTPWTFGGGTKLEIK
binds: [1] | [2] | [4] | [5]

B3: 6F3 humanized (antibody, human IgG1, kappa, V domains shown)
VH: QVQLVQSGAEVKKPGSSVKVSCKASGYTFTDYEMHWVRQAPGQGLEWIGVIDPETGGITYNQKFKGRATLTADKSTSTAYMELSSLRSEDTAVYYCTRRGARATVYNYVMDYWGQGTLVTVSS
VL: DIQMTQSPSSLSASVGDRVTITCRASENIHNYLAWYQQKPGKAPKLLVYNAKTLGDGVPSRFSGSGSGTDYTLTISSLQPEDFATYYCQHFWSTPWTFGGGTKVEIKR
binds: [6]

B4: 10B10 humanized (antibody, human IgG1, kappa, V domains shown)
VH: QVQLQESGPGLVKPSQTLSLTCAVSGYSITSGYSWNWIRQPPGKGLEWMGYIRFDGNNNYNPFLKNRITISRDTSKNQFSLKLSSVTAADTAVYYCARNYGTWGAMDFWGQGTLVTVSS
VL: DIQLTQSPSSLSASVGDRVTITCKTSQDINKYMAWYQQKPGKAPKLLIYYTSILQPGVPSRFSGSGSGTDYTFTISSLQPEDIATYYCQQYDNLNTFGGGTKVEIKR
binds: [6]
